The subject of this data set is Tau (isoform not stated in figure legend). The experiment in a line: binding assay. Conditions: fibril formation of tau on RQT157 addition; purified recombinant protein; label: 32P internal; variant of RQ11+12.

Construct, isoform or probe ends are uncertain for at least one entry.

Regarding “GGGGUUUCGAACCGGAAUUUGAGGGAUGCCUAGGCAUCCCCCGUGCGUCCCUUUACGAGGGAUUGUCGACUCUAGAGGAUCCGGUACCUGAGGGAUGCCUAGGCAUCCCCGCGCGCCGGUUUCGGACCUCCAGUGCGUGUUACCGCACUGUCGACCC [RQT157]”, the binding result is recorded as “binds”.

Values taken from US20060257904.
